Assay results from PubChem BioAssay AID1439 (NMMLSC, 2008).
The campaign covered roughly 220,000 compounds. About 770 (0.35%) were called active. This list was built around the results that the source calls inconclusive (neither active nor inactive); the mix of calls is not that of the screen. Rule as the data show it: active = binding response below about 49% or above about 150%; inconclusive = no clear call, values can overlap the other calls; inactive = in between.

Protein sequences, listed by entry. Tags and fused reporters are not part of them.
UniProt P09471, whole entry, looked up: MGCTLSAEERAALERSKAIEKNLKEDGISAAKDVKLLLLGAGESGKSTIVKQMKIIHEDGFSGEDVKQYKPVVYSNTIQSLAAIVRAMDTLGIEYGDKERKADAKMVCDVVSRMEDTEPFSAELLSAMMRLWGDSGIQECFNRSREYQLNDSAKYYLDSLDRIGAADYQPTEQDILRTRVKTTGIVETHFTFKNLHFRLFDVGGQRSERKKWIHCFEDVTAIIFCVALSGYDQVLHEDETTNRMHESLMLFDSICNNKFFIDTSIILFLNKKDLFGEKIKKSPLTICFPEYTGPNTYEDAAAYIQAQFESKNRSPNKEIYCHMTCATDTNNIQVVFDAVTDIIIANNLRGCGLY

biological target: Guanine nucleotide-binding protein G(o) subunit alpha (Homo sapiens) (UniProt P09471); test: RGS7-Galphao binding modulators, primary screen, biochemical, multiplexed bead flow cytometry (AID 1439); conditions: at 10 µM, actives lie on both sides;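 also: fluorescent Galphao held in activated GDP-AlF4 state binding bead-coupled RGS7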

| Compound | binding response (% of control) |
| --- | --- |
| CS/C(N)=N/N=C/c1c(O)ccc2ccccc12 | inconclusive: 90.6% |
| CCCCNc1ccc(C(CC(N)=O)NC(=O)Cc2cccc3ccccc23)cc1[N+](=O)[O-] (stereo not drawn) | inconclusive: 110% |
| COc1ccc2c(c1)CCC(C)N2C(=O)C(=O)c1c[nH]c2ccccc12 (stereo not drawn) | inconclusive: 68.7% |
| Clc1cccc(-c2ccc(CNCCCN3CCOCC3)o2)c1 | inactive: 96.9% |
| O=C(NC1CCCCCC1)c1cc(-c2ccccn2)nc2ccccc12 | inconclusive: 104% |
| O=C(Nc1ccc(Nc2ccncc2)cc1)c1ccc(Nc2ccnc3ccc([N+](=O)[O-])cc23)cc1 | inconclusive: 246% |
| COc1ccc(/C=N/NC(=O)c2cccc(COCC(F)(F)C(F)F)c2)cc1 | inactive: 97.8% |
| C/C(=N\N=C(N)N)c1ccc(Cl)c(Cl)c1 | inactive: 95% |
| O=C(Cc1ccccc1F)Nc1cccc2cccnc12 | inactive: 89.9% |
| COc1ccc(-c2nc3n(c2C)Cc2ccccc2-3)cc1 | inconclusive: 96.9% |
| CCCC(O)(CCC)C(=O)NNc1ccc(C)cc1 | inconclusive: 121% |
| COC(=O)Nc1nncs1 | inconclusive: 108% |
| Cc1ccc2nc(SC(C)C(=O)N3CC(C)OC(C)C3)[nH]c2c1 (stereo not drawn) | inconclusive: 95.5% |
| O=C(NCCCN1CCOCC1)C(=O)N/N=C/c1ccc2c(c1)OCO2 | inactive: 96.8% |
| c1ccc(Cn2nnc3c(NCCN4CCOCC4)ncnc32)cc1 | inactive: 118% |
| C[n+]1nc(Nc2cccc3ccccc23)sc1-c1ccc(C(=O)O)cc1 | inconclusive: 111% |
| CCOC(=O)Cc1nn(Cc2ccc(Cl)cc2)c(=O)c2ccccc12 | inconclusive: 101% |
| COc1cc(NC(=O)C(=O)Nc2ccc3nc4n(c(=O)c3c2)CCCCC4)cc(OC)c1OC | inconclusive: 94.2% |
| CSc1nc(=S)cc(C)[nH]1 | inconclusive: 95.8% |
| O=C1[C@H]2[C@H](ON3CCCC[C@H]23)C(=O)N1c1ccc(Cl)cc1 | inactive: 100% |
| CC(C)(C)OC(=O)NCCCC[C@H](NC(=O)c1nc[nH]c1C(=O)N1CCc2ccccc2C1)C(=O)OC(C)(C)C | inconclusive: 92.9% |
| CC[C@H](C)[C@H](NC(N)=O)C(=O)Nc1ccc(S(=O)(=O)NC(C)C)cc1 | inconclusive: 90.7% |

| Compound | binding response (% of control) |
| --- | --- |
| N/C(=N\OC(=O)Nc1ccccc1)c1ccno1 | inconclusive: 77.1% |
| c1ccc(N2CCN(Cc3cnc(N4CCOCC4)s3)CC2)cc1 | inconclusive: 103% |
| Cc1ccc(C)c(OCC(=O)NCC(C)C)c1C | inactive: 99.2% |
| Nc1c(C(=O)O)sc2nc(-c3ccccc3)cc(-c3ccc(Cl)cc3)c12 | inconclusive: 272% |
| c1ccc(CCn2nnnc2C(c2cccnc2)N2CCOCC2)cc1 (stereo not drawn) | inconclusive: 111% |
| COc1ccc(C([O-])=Nc2ccc[n+](-c3nc4ccccc4nc3NS(=O)(=O)c3ccccc3)c2)cc1 | inconclusive: 105% |
| CCNC(=O)CC1C(=O)N(c2ccc(C)cc2)C(=O)N1CCc1sccc1C (stereo not drawn) | inactive: 99.4% |
| NNC(=O)C(=O)Nc1ccc(Cl)c(Cl)c1 | inconclusive: 82.4% |
| O=C(CCCN1C(=O)c2cccnc2C1=O)Nc1ccccc1F | inconclusive: 97% |
| NS(=O)(=O)c1ccc(NC2=CC(c3ccc([N+](=O)[O-])cc3)N(c3ccc(S(N)(=O)=O)cc3)C2=O)cc1 (stereo not drawn) | inconclusive: 166% |
| Cn1c(/C=N/Nc2nc3ccccc3[nH]2)nc2ccccc21 | inconclusive: 113% |
| COC(=O)c1ccc(NC(=O)Nc2ccccc2F)cc1 | inconclusive: 116% |
| Cc1ccc(C(C)C)c(OCC(=O)N/N=C/c2cccn2C)c1 | inconclusive: 102% |
| CCOC(=O)C1CCN(c2c(NCc3ccc(N(C)C)cc3)c(=O)c2=O)CC1 | inconclusive: 100% |
| O=C(COC(=O)c1cc(NS(=O)(=O)c2cccs2)ccc1O)Nc1ccccc1 | inconclusive: 110% |
| COc1cc2c(c(O)c1OC)-c1c(cc(OC)c(OC)c1O)[C@@H](OC(=O)c1ccccc1)[C@@](C)(O)[C@@H](C)[C@@H]2OC(C)=O | inconclusive: 106% |
| CC(=O)c1ccc(NC(=O)C(C)N2CCN(C/C=C/c3ccccc3)CC2)cc1 (stereo not drawn) | active: 151% [activator] |
| CC(NC(=O)c1ccc(F)cc1)C(=O)NC1=NCCS1 (stereo not drawn) | inactive: 97.2% |
| C=CCNc1nc(N)c([N+](=O)[O-])c(NCCO)n1 | inconclusive: 50.6% |
| CCOC(=O)C1(Cc2cccc(OC)c2)CCN(Cc2cccc(OC)c2O)CC1 | inactive: 101% |
| CCOC(=O)C1=C(N)OC2=C(C(=O)CC(C)(C)C2)C1c1cc(CSc2nnnn2C)cs1 (stereo not drawn) | inactive: 103% |
| Cc1ccc(/C=N\NC(=O)/C(=C\Nc2nccc(C)n2)NC(=O)c2ccccc2)cc1 | inconclusive: 110% |

Structures listed so far that contain a thiophene ring, fused or not (four):

| Compound | binding response (% of control) |
| --- | --- |
| Nc1c(C(=O)O)sc2nc(-c3ccccc3)cc(-c3ccc(Cl)cc3)c12 | inconclusive: 272% |
| CCNC(=O)CC1C(=O)N(c2ccc(C)cc2)C(=O)N1CCc1sccc1C (stereo not drawn) | inactive: 99.4% |
| O=C(COC(=O)c1cc(NS(=O)(=O)c2cccs2)ccc1O)Nc1ccccc1 | inconclusive: 110% |
| CCOC(=O)C1=C(N)OC2=C(C(=O)CC(C)(C)C2)C1c1cc(CSc2nnnn2C)cs1 (stereo not drawn) | inactive: 103% |

Additional records:

| Compound | binding response (% of control) |
| --- | --- |
| O=c1oc2ccc(Cl)cc2nc1/C=C(\O)c1cccs1 | inconclusive: 84% |
| CCOC(=O)c1ccc(NC(=O)c2nc[nH]c2C(=O)N[C@@H](Cc2ccccc2)C(=O)OC(C)(C)C)cc1 | inconclusive: 54.2% |
| COc1ccc2[nH]c(C(=O)NCc3ccc4c(c3)OCO4)cc2c1 | inconclusive: 107% |
| c1ccc(-c2nnc(N3CCN(c4ccccc4)CC3)nc2-c2ccccc2)cc1 | inconclusive: 170% |
| COc1ccc(CN2CCOCCOCCOCCOCCOCC2)cc1 | inconclusive: 129% |
| Cc1nc(OCC(C)C)c2sc3nc4c(cc3c2n1)COC(C)(C)C4 | inconclusive: 68.8% |
| O=C(N/N=C/c1ccc2nccnc2c1)c1ccccc1O | inconclusive: 143% |
| N#Cc1c(-c2ccccc2)c(-c2ccccc2)nn(CC(=O)NNC(=O)Nc2ccc(Cl)cc2)c1=O | inconclusive: -81.5% |
| Cc1cc(C)cc(NC(=O)C(Sc2nnc(C)c(=O)[nH]2)c2ccccc2)c1 (stereo not drawn) | inconclusive: 32.6% |
| NS(=O)(=O)c1ccc(CCNC(=O)c2ccc3nc4ccc(Cl)cc4c(=O)n3c2)cc1 | inactive: 103% |
| O=C(O)/C=C/c1cccnc1 | inconclusive: 64.1% |
| NNC(=S)Nc1cccc(Cl)c1 | inconclusive: 101% |
| Cc1cc(SCC(=O)Nc2ccc(O)cc2)n2ncc(-c3ccccc3)c2n1 | inconclusive: 16.2% |
| Cc1[nH]n(-c2ccccc2)c(=O)c1N=Nc1ccccc1C(=O)N1CCCCC1 | inconclusive: 108% |
| Cc1nnc(SC(C(=O)Nc2ccc(Cl)c([N+](=O)[O-])c2)c2ccccc2)[nH]c1=O (stereo not drawn) | inconclusive: 114% |
| CC(C)n1c(O)c(N=NC(=O)Cn2ccc(C(F)(F)F)n2)c2ccccc21 | inactive: 96.9% |
| COC(=O)Cc1c(C)c2ccc(OC(C)C)cc2oc1=O | inconclusive: 96.9% |
| O=c1c2ccccc2sn1-c1nccs1 | inactive: 101% |
| CC(C)[C@H](NS(=O)(=O)c1cccc(C(F)(F)F)c1)C(=O)OCC(N)=O | inconclusive: 114% |
| Cc1ccc(C(=O)N2C(=O)c3cccc(N)c3C2=O)o1 | inconclusive: 164% |
| Cc1ccc(C)c(C(=O)CCC(=O)O)c1 | inconclusive: 82.3% |
| O=C(O)CC1(CC(=O)Nc2ccc(Oc3cccc(C(F)(F)F)c3)nc2)CCCC1 | inconclusive: 110% |

| Compound | binding response (% of control) |
| --- | --- |
| O=C(Nc1cnc2ccccn2c1=O)c1ccc(Cl)cc1 | inactive: 105% |
| O=C(CSc1nnc(NC(=O)c2ccco2)s1)Nc1ccccc1 | inconclusive: 112% |
| Cc1cc(C)c2c(CC(=O)Nc3nccs3)coc2c1 | inactive: 101% |
| C[C@@H]1CC=C[C@H]2[C@H]1C(=O)N(Cc1ccccc1)[C@H]2c1ccc(F)c(/C=C/c2ccccc2)c1 | inconclusive: 86% |
| COc1ccc(NS(=O)(=O)c2ccc(N3CC(O)=C(c4ccccc4)C3=N)cc2)cc1 | inconclusive: 104% |
| CN(C)CCNS(=O)(=O)c1ccc(N2CCN(c3ccc(F)cc3)CC2)c([N+](=O)[O-])c1 | inactive: 106% |
| C/C=C\C(=O)Nc1cccc(C2=NOC3(C2)C[C@H](C(N)=O)N(C(=O)[C@H]2CCC(=O)N2)C3)c1 (stereo partly drawn) | inconclusive: 98.1% |
| Cc1cc(=O)[nH]c(-n2ncc(C#N)c2N)n1 | inconclusive: 88.8% |
| NC1=NC[C@H](c2ccccc2)N1CCc1cc(C(F)(F)F)cc(C(F)(F)F)c1 | inconclusive: 95.1% |
| Cc1ccc(NC(=O)/C(=C\c2ccc3c(c2)OCO3)NC(=O)c2ccco2)cc1 | inactive: 98.6% |
| CCCn1c(=N)n(CC(O)c2ccc(C)cc2)c2ccccc21 (stereo not drawn) | inconclusive: 77.1% |
| Cc1nc(SCc2nc3ccccc3[nH]2)c2oc3ccccc3c2n1 | active: 167% [activator] |
| O=C(N/N=C/c1cn(-c2ccccc2)nc1-c1cccnc1)c1ccc(F)cc1 | inconclusive: 102% |
| CCCCNc1c2c3c(cccc3n(C)c1=O)C(=O)c1ccccc1-2 | inactive: 104% |
| COc1ccc(-c2csc(NC(=O)c3ccoc3C)n2)cc1 | inconclusive: 97.7% |
| Cc1cc(C)n2cc(CSc3ccc(Cl)cc3)nc2n1 | inconclusive: 101% |
| O=C(OC1CCOC1=O)c1ccc(Cl)c(S(=O)(=O)N2CCCCC2)c1 (stereo not drawn) | inconclusive: 98.6% |
| Cc1cc(C)cc(N(CC(=O)NCc2ccco2)C(=O)CCC(=O)Nc2ccccn2)c1 | inactive: 101% |
| COC(=O)c1cc2c(s1)-c1cc(F)ccc1OC2 | inconclusive: 24.3% |
| COc1ccccc1CC(=O)NCc1csc(-c2cccs2)n1 | inconclusive: 84.6% |
| CC(=O)c1ccc(-c2ccccc2[C@H]2[C@H]3C=CC[C@@H](C)[C@@H]3C(=O)N2Cc2ccccc2)cc1 | inconclusive: 102% |
| CCCNc1nc(-c2cc(-c3ccc(Cl)cc3)on2)cc(C(C)C)n1 | inconclusive: 110% |
